Where two headings read alike, the source gives them in different places.
Details: average of 3 strands

O=C1O[C@H]([C@@H](O)CO)C(=O)C1=O [Dehydroascorbic Acid, dehydroascorbic acid]
Cystine (3 permanent wave treatments): 570 µmol/g | Cystine (6 permanent wave treatments): 546 µmol/g

OO [Peroxide, hydrogen peroxide, reference compound]
Cystine (3 permanent wave treatments): 541 µmol/g | Cystine (6 permanent wave treatments): 429 µmol/g

From patent publication US6506373B1, “Agent and method for permanent waving” (Wella Aktiengesellschaft, priority 1998, dated 2003)
